Test results: paper PMC7819943, “Rice protein-binding microarrays: a tool to detect cis-acting elements near promoter regions in rice”
The other results are listed elsewhere or left out.

Sequences of proteins named here, by UniProt entry; tags and fusion partners are left off.
UniProt Q0JBA9, entry or part of it: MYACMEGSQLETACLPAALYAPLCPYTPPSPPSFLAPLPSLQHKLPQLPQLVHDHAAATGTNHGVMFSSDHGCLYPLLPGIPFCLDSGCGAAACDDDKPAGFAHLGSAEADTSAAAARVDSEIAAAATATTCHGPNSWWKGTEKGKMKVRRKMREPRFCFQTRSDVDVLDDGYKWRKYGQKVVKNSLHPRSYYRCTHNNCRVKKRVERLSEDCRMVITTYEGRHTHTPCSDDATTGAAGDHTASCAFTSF

Target: OsWRKY34 (Oryza sativa, UniProt Q0JBA9 1-250)
Test: protein-binding microarray (RPBM); PBS, 2% BSA, 51.3 ng/ul salmon testes DNA, 50 uM zinc acetate, 200 nM TF, 25 C, 1 h; high values mean tight binding
Conditions: protein: recombinant; tags: N-terminal polyhistidine and DsRed monomer fusion (pET32a); label: CyDye5-dUTP incorporated in the synthesized complementary strand; 3' TTTTT single-stranded linker to array surface; dsDNA, one strand shown
Procedure, shortened: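 The binding signal for each feature is its fluorescence intensity in arbitrary units. An Axon 4000B scanner was used to read a custom Agilent array that had been made double-stranded with Cy5-dUTP primer extension, blocked with 2% BSA, incubated at 25 °C for 1 h with 200 nM protein in PBS, 2% BSA, salmon testes DNA and 50 µM zinc acetate, and washed. The protein was an N-terminal polyhistidine–DsRed transcription factor fusion from E. coli BL21-CodonPlus, purified on Ni–NTA.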

Row | Sequence | binding signal
1 | TTCATATCATATAAAATCTATTGTTTTTGCCTACAACTTTCGGAGTCACCTAGTGCAG | 8120 fluorescence intensity (a.u.)
2 | TTTATAGTCCCGGTTGGTATTATATTGAATGTTTGGACATCGGAGTCACCTAGTGCAG | 8200 fluorescence intensity (a.u.)
3 | AACATCACCGCAGCGCCATGCCACCACACGTCCGGAAAGTCGGAGTCACCTAGTGCAG | 11000 fluorescence intensity (a.u.)
4 | CCTATACTGATATACTACTACTACACTTATCCGGTTTTAACGGAGTCACCTAGTGCAG | 9060 fluorescence intensity (a.u.)
5 | CTTCTGCTTATACTGAGCTTGTTGTTCTTGTTGTTTGTCGCGGAGTCACCTAGTGCAG | 10600 fluorescence intensity (a.u.)
6 | AACACCATGCCTACGCGATTCAGATCAATTTTACAGTTTTCGGAGTCACCTAGTGCAG | 9730 fluorescence intensity (a.u.)
7 | CCATTTTTTTTAGCTGACATGTGGGACCCATCATTTTTAACGGAGTCACCTAGTGCAG | 9560 fluorescence intensity (a.u.)
8 | TACTACCTCTTTGTTTCTCTCTCTATATATACCTATCCAACGGAGTCACCTAGTGCAG | 8330 fluorescence intensity (a.u.)
9 | ATTGTTGGGCTGCTTTATTTTATGGGCTGAATTCTTTCACCGGAGTCACCTAGTGCAG | 10600 fluorescence intensity (a.u.)
10 | ACCCTGCACCTCCTTCCTCGTCGACGCCATGGCAGCACCGCGGAGTCACCTAGTGCAG | 9800 fluorescence intensity (a.u.)
11 | TTCTTTTCGCTAGTGATGTCTAGCGTTTCTTTTGACAAATCGGAGTCACCTAGTGCAG | 8560 fluorescence intensity (a.u.)
12 | CTAGCTAACCACCCGTCACCCGATATCAACGCTAGGCCTTCGGAGTCACCTAGTGCAG | 9300 fluorescence intensity (a.u.)
13 | CCAACAACACCAGCTTCCGCTTCGAGTTCGTCGCCAACCGCGGAGTCACCTAGTGCAG | 10000 fluorescence intensity (a.u.)
14 | GAATGTTTACTTTGTTGCCGTTGCATGATCCCCTCCGCTCCGGAGTCACCTAGTGCAG | 8430 fluorescence intensity (a.u.)
15 | TCGGCGTTCTGTTCTGTTCTGCTTCTGCGCGCAGTGTATACGGAGTCACCTAGTGCAG | 9870 fluorescence intensity (a.u.)
16 | AGACCATTTCAGGAACGCAACGATTTTTAACTTTCTCTTGCGGAGTCACCTAGTGCAG | 9610 fluorescence intensity (a.u.)
17 | CATGACGACTTCTACCGCCGATCGTCTTCAACTGCGCGTCCGGAGTCACCTAGTGCAG | 10100 fluorescence intensity (a.u.)
18 | ACGCGCTCGTTGACTCCGTCGGGTCGCCGCTGTCGGCGGCCGGAGTCACCTAGTGCAG | 8500 fluorescence intensity (a.u.)
19 | AGTAGGCTCCTCCACTTCACCACCGTCCACAGTCTCGTTCCGGAGTCACCTAGTGCAG | 8660 fluorescence intensity (a.u.)
20 | GGGGATTTGGTGGCCACGACGGTTGCGATGCCGGCCGGGACGGAGTCACCTAGTGCAG | 10400 fluorescence intensity (a.u.)
21 | AATACTCCTCTACTCATATTAGTACAATATCACAAACTTACGGAGTCACCTAGTGCAG | 8250 fluorescence intensity (a.u.)
22 | CGACGACCCCACCAGGGCCATCAACATCCTCCTCGACTTTCGGAGTCACCTAGTGCAG | 8160 fluorescence intensity (a.u.)
23 | ATCTCTACTCGTCGCCGTGCTCATGGTCGTCCTCTTCGATCGGAGTCACCTAGTGCAG | 13800 fluorescence intensity (a.u.)
24 | AATCCCAAGCTAGGTGTTGACCATGGGTCAACAATCTCCCCGGAGTCACCTAGTGCAG | 9470 fluorescence intensity (a.u.)
25 | TTCTTTTGGTCTCTCTTTTTTGTTGGATCGATCTTGTCTCCGGAGTCACCTAGTGCAG | 10200 fluorescence intensity (a.u.)
26 | ATCGTACCATTATTCAAAATTTTAAATAGTTACATGTTCACGGAGTCACCTAGTGCAG | 8120 fluorescence intensity (a.u.)
27 | ATACATATACATACGGTTGACCACTTGGGCTGGGCTGGGCCGGAGTCACCTAGTGCAG | 9200 fluorescence intensity (a.u.)

Row | Sequence | binding signal
28 | TTGTTTTTTTTGTGCTTGTGTTGTGTGTTCTTCCATCTGGCGGAGTCACCTAGTGCAG | 8820 fluorescence intensity (a.u.)
29 | ATGGTTTTGGTTTGGTTGTTGGAGAATTGTATATGCAGGGCGGAGTCACCTAGTGCAG | 8760 fluorescence intensity (a.u.)
30 | CATCTAGTTGCCTCTTGTTCTCTGCTCAGGCCGGTTTTGTCGGAGTCACCTAGTGCAG | 9120 fluorescence intensity (a.u.)
31 | CTCGTTTACCTTACTCTCGCTTAGTTCGTTGAGGCATTTCCGGAGTCACCTAGTGCAG | 14900 fluorescence intensity (a.u.)
32 | CCAAATTCTATGGCCATCTTTGTCTTCCAGTTTGATCCTTCGGAGTCACCTAGTGCAG | 12200 fluorescence intensity (a.u.)
33 | GCCGGATCGGGTGGCTGGGTTGGTTGAGGGTCCAAGAAAGCGGAGTCACCTAGTGCAG | 12100 fluorescence intensity (a.u.)
34 | ATGTTTGACCGTTCGTCTTATTCAAAAACTTTTGTAAAATCGGAGTCACCTAGTGCAG | 10100 fluorescence intensity (a.u.)
35 | TCTTTGCCTATCTCTGCTTCCTTCCTGTCTCCTTCTTCTTCGGAGTCACCTAGTGCAG | 9220 fluorescence intensity (a.u.)
36 | ATCCAGAATCCTCCAATGCCACACATGACCCGGTCAACATCGGAGTCACCTAGTGCAG | 10200 fluorescence intensity (a.u.)
37 | AATTCCTCTGCGGCCGCCACGTGCACGCGCCGCCGTTGCCCGGAGTCACCTAGTGCAG | 8630 fluorescence intensity (a.u.)
38 | GCATTCCGGACCATTCTCGCTCTCGCATGGCAAGGCCGGCCGGAGTCACCTAGTGCAG | 8670 fluorescence intensity (a.u.)
39 | CTTACATTATATTTTTCTTCATTTGTGTTTTATTTACAGTCGGAGTCACCTAGTGCAG | 9710 fluorescence intensity (a.u.)
40 | ATGCGAGGACGTTGACGATAGAGAGTTGACCAAGAATTTTCGGAGTCACCTAGTGCAG | 9480 fluorescence intensity (a.u.)
41 | GCTTGGTTTGGTTTGAGGCCTAGGCTTGTTCACTTTGATGCGGAGTCACCTAGTGCAG | 8400 fluorescence intensity (a.u.)
42 | AATCAATGTACTACCTACATCCTTAATCTATGACGCCATCCGGAGTCACCTAGTGCAG | 8210 fluorescence intensity (a.u.)
43 | TTACGTCTTAGAGTCCGTGCTACACCTGATCACTACAAATCGGAGTCACCTAGTGCAG | 11100 fluorescence intensity (a.u.)
44 | TCCCTGCTCATCGTCTGATCGCCACGCAAGCTGCCACGTCCGGAGTCACCTAGTGCAG | 10700 fluorescence intensity (a.u.)
45 | CCTTAATGCTCGAGATATACTAATACTACTCCCTTTGTTTCGGAGTCACCTAGTGCAG | 10400 fluorescence intensity (a.u.)
46 | CAATGTATTCAGGTACGCCGATTATTTGGTTGGTAGTAGTCGGAGTCACCTAGTGCAG | 11500 fluorescence intensity (a.u.)
47 | CACCTCACCGAGCTCCGCCCGCCACGAGACCATCCGTCGCCGGAGTCACCTAGTGCAG | 8890 fluorescence intensity (a.u.)
48 | GATGTGTTCTCCGTGTTCTTGATGTTTCCGGCTGGGGTTCCGGAGTCACCTAGTGCAG | 9100 fluorescence intensity (a.u.)
49 | ATTATGCTTGCTGCTGCTGCTGTTGTTGTAACACTAGTGACGGAGTCACCTAGTGCAG | 10200 fluorescence intensity (a.u.)
50 | CGATTGCTTGTAGTAACTCTTTCGTGTATTTATGGGGTTACGGAGTCACCTAGTGCAG | 8360 fluorescence intensity (a.u.)
51 | AATTTTATTTTTACCCCTACTTGGATATGTGCCCCTGTTTCGGAGTCACCTAGTGCAG | 9100 fluorescence intensity (a.u.)
52 | GCGGAATAGGAGGGCATCGATGTGCTGGGCTGTGAATTTTCGGAGTCACCTAGTGCAG | 8280 fluorescence intensity (a.u.)
53 | GTTCATTTCTAGTCGTCTTAATGTTTATTTGAAAATTTATCGGAGTCACCTAGTGCAG | 8300 fluorescence intensity (a.u.)
54 | TGGCTAGCGAGTCTTGACCCATTTGTCGGTCCACCTCTATCGGAGTCACCTAGTGCAG | 8400 fluorescence intensity (a.u.)

As entered above.
GTTCATTTCTAGTCGTCTTAATGTTTATTTGAAAATTTATCGGAGTCACCTAGTGCAG | binding signal: 8300 fluorescence intensity (a.u.)
CACCTCACCGAGCTCCGCCCGCCACGAGACCATCCGTCGCCGGAGTCACCTAGTGCAG | binding signal: 8890 fluorescence intensity (a.u.)
